According to the supplement of paper PMC4604168 (melanoma cell lines):
The other results are listed elsewhere or left out. Single values are uncertain, as repeats are few or missing.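 Cells were imaged in 1,536-well plates, and nuclei stained with an antibody against cleaved PARP were counted against all DNA-stained nuclei to give the apoptosis fraction. Screening doses were chosen to leave most cells alive, and resting and induced cleaved-PARP levels differ strongly between cell lines.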

Experiments:
Experiment in all cases: cleaved PARP positive nuclei fraction relative to DMSO control; melanoma cells; higher = more apoptosis
Conditions in all cases: library dose: low library concentration; 72 h
501Mel = system: 501Mel
A101D = system: A101D
A2058 = system: A2058
A375 = system: A375
C32 = system: C32
CBRC008 = system: CBRC008 (line from a melanoma biopsy)
CBRC014 = system: CBRC014 (line from a melanoma biopsy)
CBRC016 = system: CBRC016 (line from a melanoma biopsy)
CBRC017 = system: CBRC017 (line from a melanoma biopsy)
CBRC034 = system: CBRC034 (line from a melanoma biopsy)
COLO792 = system: COLO792
COLO800 = system: COLO800
COLO829 = system: COLO829
G361 = system: G361
IPC-298 = system: IPC-298
IST-MEL1 = system: IST-MEL1
LB2518-MEL = system: LB2518-MEL
LOXIMVI = system: LOXIMVI
MEL-HO = system: MEL-HO

SMILES | cleaved PARP positive nuclei fraction (501Mel) | cleaved PARP positive nuclei fraction (A101D) | cleaved PARP positive nuclei fraction (A2058) | cleaved PARP positive nuclei fraction (A375) | cleaved PARP positive nuclei fraction (C32) | cleaved PARP positive nuclei fraction (CBRC008) | cleaved PARP positive nuclei fraction (CBRC014) | cleaved PARP positive nuclei fraction (CBRC016) | cleaved PARP positive nuclei fraction (CBRC017) | cleaved PARP positive nuclei fraction (CBRC034) | cleaved PARP positive nuclei fraction (COLO792) | cleaved PARP positive nuclei fraction (COLO800) | cleaved PARP positive nuclei fraction (COLO829) | cleaved PARP positive nuclei fraction (G361) | cleaved PARP positive nuclei fraction (IPC-298) | cleaved PARP positive nuclei fraction (IST-MEL1) | cleaved PARP positive nuclei fraction (LB2518-MEL) | cleaved PARP positive nuclei fraction (LOXIMVI) | cleaved PARP positive nuclei fraction (MEL-HO)
C[C@]1(O)C[C@@H](c2nc(-c3ccc4ccc(-c5ccccc5)nc4c3)c3c(N)nccn32)C1 + CCCCCCCCc1ccc(CCC(N)(CO)CO)cc1 [fingolimod] (first compound 0.4 µM, partner dose 2 µM) | 790% | 109% | 78% | 1120% | 84.3% | 79.4% | 106% | 94.1% | 114% | 79% | 101% | 196% | 56.9% | 190% | 92.4% | 201% | 117% | 119% | 87.5%
CN(c1ncccc1CNc1nc(Nc2ccc3c(c2)CC(=O)N3)ncc1C(F)(F)F)S(C)(=O)=O + CCCS(=O)(=O)Nc1ccc(F)c(C(=O)c2c[nH]c3ncc(Cl)cc23)c1F [PLX4720] (first compound 0.08 µM, partner dose 0.08 µM) | 55.9% | 39.9% | 42.1% | 217% | 80% | 82.3% | 129% | 125% | 86.3% | 191% | 55.8% | 110% | 87.6% | 204% | 46.2% | 148% | 97.5% | 134% | 89.4%
CS(=O)(=O)c1ccc(C(=O)Nc2ccc(Cl)c(-c3ccccn3)c2)c(Cl)c1 [vismodegib] + Cc1cc(Nc2cc(N3CCN(C)CC3)nc(/C=C/c3ccccc3)n2)n[nH]1 [ENMD2076] (first compound 1 µM, partner dose 0.04 µM) | 88.6% | 91.7% | 78.1% | 64.2% | 81.3% | 56% | 78.7% | 85.5% | 89.5% | 43.3% | 61.4% | 214% | 163% | 53.7% | 130% | 119% | 47% | 195% | 252%
Cn1sc(=O)n(Cc2ccccc2)c1=O + Cc1cc(Nc2cc(N3CCN(C)CC3)nc(/C=C/c3ccccc3)n2)n[nH]1 [ENMD2076] (first compound 0.4 µM, partner dose 0.04 µM) | 39.4% | 49.1% | 168% | 36% | 76.8% | 50.9% | 91.1% | 94.5% | 261% | 107% | 56% | 114% | 131% | 103% | 56.9% | 170% | 109% | 108% | 71.3%
COc1ccc(C2=N[C@@H](c3ccc(Cl)cc3)[C@@H](c3ccc(Cl)cc3)N2C(=O)N2CCNC(=O)C2)c(OC(C)C)c1 [Nutlin-3] + CCCS(=O)(=O)Nc1ccc(F)c(C(=O)c2c[nH]c3ncc(Cl)cc23)c1F [PLX4720] (first compound 0.1 µM, partner dose 0.08 µM) | 64.3% | 173% | 98.4% | 349% |  | 66% | 123% | 175% | 104% | 58% | 119% | 65.2% | 44.8% | 166% | 84% | 331% | 193% | 40.8% | 61.2%
C[C@]1(O)C[C@@H](c2nc(-c3ccc4ccc(-c5ccccc5)nc4c3)c3c(N)nccn32)C1 + C=C(c1ccc(C(=O)O)cc1)c1cc2c(cc1C)C(C)(C)CCC2(C)C [Bexarotene] (first compound 0.4 µM, partner dose 2 µM) | 180% | 50.4% | 113% | 444% | 102% | 364% | 142% | 45.3% | 156% | 65.6% | 93.9% | 122% | 37.6% | 62.2% | 46.6% | 71.8% | 332% | 57% | 218%
CC1(C)CCC(c2ccc(Cl)cc2)=C(CN2CCN(c3ccc(C(=O)NS(=O)(=O)c4ccc(N[C@H](CCN5CCOCC5)CSc5ccccc5)c(S(=O)(=O)C(F)(F)F)c4)cc3)CC2)C1 + COc1ccc(C2=N[C@@H](c3ccc(Cl)cc3)[C@@H](c3ccc(Cl)cc3)N2C(=O)N2CCNC(=O)C2)c(OC(C)C)c1 [Nutlin-3] (first compound 0.4 µM, partner dose 0.1 µM) | 25.6% | 334% | 145% | 321% | 347% | 340% | 507% | 384% | 425% | 193% | 323% | 241% | 137% | 186% | 88.7% | 81.2% | 125% | 201% | 89.9%
NC1(c2ccc(-c3nc4ccn5c(=O)[nH]nc5c4cc3-c3ccccc3)cc2)CCC1 + CC(C)C[C@H](NC(=O)[C@H](Cc1ccccc1)NC(=O)c1cnccn1)B(O)O [Bortezomib] (first compound 0.4 µM, partner dose 0.001 µM) | 71.2% | 557% | 112% | 138% | 176% | 336% | 100% | 124% | 72.8% | 46.4% | 164% | 118% | 110% | 294% | 95.4% | 100% | 148% | 152% | 144%
C[C@@H](N)c1ccc(C(=O)Nc2ccnc3[nH]ccc23)cc1 + OCc1c[nH]c2ccccc12 [Indole-3-carbinol] (first compound 0.4 µM, partner dose 0.8 µM) | 221% | 54.4% | 172% | 187% | 98.3% | 111% | 108% | 333% | 130% | 167% | 209% | 134% | 111% | 86.8% | 271% | 170% | 131% | 103% | 108%
CC(=O)O[C@@]12CO[C@@H]1C[C@H](O)[C@@]1(C)C(=O)[C@H](O)C3=C(C)[C@@H](OC(=O)[C@H](O)[C@@H](NC(=O)OC(C)(C)C)c4ccccc4)C[C@@](O)([C@@H](OC(=O)c4ccccc4)[C@H]21)C3(C)C [Docetaxel] + Oc1cc(-c2nc(-c3ccccc3)[nH]c2-c2ccncc2)ccc1Cl [L779450] (first compound 0.0001 µM, partner dose 0.2 µM) | 309% | 10.5% | 5080% |  | 437% | 467% | 175% | 67.2% | 157% |  | 869% | 270% | 192% | 668% | 584% | 213% | 148% | 134% | 
C[C@@H](N)c1ccc(C(=O)Nc2ccnc3[nH]ccc23)cc1 + Oc1nc(-c2ccc(C(F)(F)F)cc2)nc2c1CSCC2 [XAV939] (first compound 0.4 µM, partner dose 2 µM) | 61.6% | 29.8% | 75.2% |  | 172% | 153% | 118% | 55.1% | 95.6% |  | 128% | 58.6% | 153% | 151% | 142% | 37.5% | 274% | 96.8% | 
NC(=O)c1ccc(N(C(N)=O)c2c(F)cccc2F)nc1-c1ccc(F)cc1F + Oc1cc(-c2nc(-c3ccccc3)[nH]c2-c2ccncc2)ccc1Cl [L779450] (first compound 0.4 µM, partner dose 0.2 µM) | 117% | 27.4% | 79% |  | 180% | 81.3% | 95.3% | 41.2% | 90.6% |  | 107% | 140% | 40.8% | 146% | 73.1% | 99.8% | 141% | 114% | 
COc1ccc(C2=N[C@@H](c3ccc(Cl)cc3)[C@@H](c3ccc(Cl)cc3)N2C(=O)N2CCNC(=O)C2)c(OC(C)C)c1 [Nutlin-3] + O=C1NC(=O)/C(=C/c2ccc(-c3ccc(F)cc3O)o2)S1 [AS252424] (first compound 0.1 µM, partner dose 1 µM) | 79.4% | 17.7% | 61.6% |  | 74% | 261% | 78.3% | 71.9% | 90.6% |  | 111% | 80.2% | 165% | 112% | 49.2% | 144% | 84.7% | 201% | 
Cn1sc(=O)n(Cc2ccccc2)c1=O + Cn1cc(/C=C2\C(=O)Nc3cccnc32)c2ccccc21 [GW441756] (first compound 0.4 µM, partner dose 0.4 µM) | 98.6% | 23.2% | 31.3% |  | 86.9% | 126% | 188% | 198% | 87.5% |  | 70% | 131% | 57.2% | 87.1% | 42.5% | 66.4% | 63.6% | 86.9% | 
CC1(C)CCC(c2ccc(Cl)cc2)=C(CN2CCN(c3ccc(C(=O)NS(=O)(=O)c4ccc(N[C@H](CCN5CCOCC5)CSc5ccccc5)c(S(=O)(=O)C(F)(F)F)c4)cc3)CC2)C1 + c1cc(-c2cnn3cc(-c4ccc(OCCN5CCCCC5)cc4)cnc23)ccn1 [Dorsomorphin] (first compound 0.4 µM, partner dose 0.4 µM) | 195% | 123% | 38% |  | 371% | 283% | 421% | 376% | 543% |  | 437% | 61.8% | 161% | 171% | 30.4% | 217% | 419% | 37.8% | 
CS(=O)(=O)c1ccc(C(=O)Nc2ccc(Cl)c(-c3ccccn3)c2)c(Cl)c1 [vismodegib] + CC(C)CCN1c2nc(Nc3cc(F)c(O)c(F)c3)ncc2N(C)C(=O)C1C [BID1870] (first compound 1 µM, partner dose 0.2 µM) | 29.4% | 29.3% | 58.2% |  | 73% | 161% | 129% | 74.8% | 104% |  | 54.9% | 32.5% | 100% | 201% | 25.3% | 66% | 146% | 132% | 
CC1(C)CCC(c2ccc(Cl)cc2)=C(CN2CCN(c3ccc(C(=O)NS(=O)(=O)c4ccc(N[C@H](CCN5CCOCC5)CSc5ccccc5)c(S(=O)(=O)C(F)(F)F)c4)cc3)CC2)C1 + COc1cc(N2CCC(N3CCN(C)CC3)CC2)ccc1Nc1ncc(Cl)c(Nc2ccccc2S(=O)(=O)C(C)C)n1 [NVP-TAE684] (first compound 0.4 µM, partner dose 0.08 µM) | 189% | 71.2% | 52.2% |  | 179% | 687% | 803% | 664% | 686% |  | 477% | 139% | 128% | 152% | 189% | 91% | 234% | 179% | 

Another view of some results above:
SMILES	cleaved PARP positive nuclei fraction (501Mel)	cleaved PARP positive nuclei fraction (A101D)	cleaved PARP positive nuclei fraction (A2058)	cleaved PARP positive nuclei fraction (A375)	cleaved PARP positive nuclei fraction (C32)	cleaved PARP positive nuclei fraction (CBRC008)	cleaved PARP positive nuclei fraction (CBRC014)	cleaved PARP positive nuclei fraction (CBRC016)	cleaved PARP positive nuclei fraction (CBRC017)	cleaved PARP positive nuclei fraction (CBRC034)	cleaved PARP positive nuclei fraction (COLO792)	cleaved PARP positive nuclei fraction (COLO800)	cleaved PARP positive nuclei fraction (COLO829)	cleaved PARP positive nuclei fraction (G361)	cleaved PARP positive nuclei fraction (IPC-298)	cleaved PARP positive nuclei fraction (IST-MEL1)	cleaved PARP positive nuclei fraction (LB2518-MEL)	cleaved PARP positive nuclei fraction (LOXIMVI)	cleaved PARP positive nuclei fraction (MEL-HO)
NC1(c2ccc(-c3nc4ccn5c(=O)[nH]nc5c4cc3-c3ccccc3)cc2)CCC1 + CC(C)C[C@H](NC(=O)[C@H](Cc1ccccc1)NC(=O)c1cnccn1)B(O)O [Bortezomib] (first compound 0.4 µM, partner dose 0.001 µM)	71.2%	557%	112%	138%	176%	336%	100%	124%	72.8%	46.4%	164%	118%	110%	294%	95.4%	100%	148%	152%	144%
C[C@@H](N)c1ccc(C(=O)Nc2ccnc3[nH]ccc23)cc1 + OCc1c[nH]c2ccccc12 [Indole-3-carbinol] (first compound 0.4 µM, partner dose 0.8 µM)	221%	54.4%	172%	187%	98.3%	111%	108%	333%	130%	167%	209%	134%	111%	86.8%	271%	170%	131%	103%	108%
